PubChem BioAssay AID1671195, Yale University – 2021
Aim: 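Genes whose knockdown alters LDL uptake in liver cancer cells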 (primary screen). Cell system: human Huh7 hepatoma cells. Reagents: siRNA pool against human genes, 18 nM. Timing: about 2 to 2.5 days of knockdown, then 8 h LDL uptake. Treatment: DiI-labelled LDL at 30 µg/ml for 8 h, in lipoprotein-deficient serum medium. Read-out: 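Per-cell DiI-LDL intensity by automated imaging; well means scaled to the plate median and given as a robust z-score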. Direction: robust z-score: higher = more LDL uptake after knockdown. Call rule: 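a gene counts as active if at least two replicate z-scores exceed ±2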.
Here is an unselected part of about 22,000 reagents. Over the whole deposit, about 1,510 (6.9%) are marked active. 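Active includes knockdowns raising or lowering LDL uptake; positive z-scores mean more uptake, negative mean less.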 Unmarked entries are inactive.

Against TUBB3 (GeneID 10381), the values are robust z-score, replicate 1 = -1.45; robust z-score, replicate 2 = -0.89; robust z-score, replicate 3 = -1.26.
For LRRC75A (GeneID 388341) the deposit lists robust z-score, replicate 1 = 1.08; robust z-score, replicate 2 = 0.931; robust z-score, replicate 3 = 1.07.
For POU4F1 (GeneID 5457), the entry reads robust z-score, replicate 1 = 0.569; robust z-score, replicate 2 = 0.894; robust z-score, replicate 3 = 1.27.
Silencing of RGS16 (GeneID 6004) resulted in: robust z-score, replicate 1 = 1.07; robust z-score, replicate 2 = 0.7; robust z-score, replicate 3 = 1.08.
Knock-down of FSIP1 (GeneID 161835) came out at: robust z-score, replicate 1 = 0.418; robust z-score, replicate 2 = 2.05; robust z-score, replicate 3 = 1.7.
Against ATP6V1B1 (GeneID 525), the entry reads robust z-score, replicate 1 = -0.689; robust z-score, replicate 2 = -0.0825; robust z-score, replicate 3 = -0.867.
After knock-down of HAUS1 (GeneID 115106), the record shows robust z-score, replicate 1 = 0.43; robust z-score, replicate 2 = 0.0205; robust z-score, replicate 3 = 0.0649.
Depletion of ANKRD22 (GeneID 118932) gave: robust z-score, replicate 1 = 1.02; robust z-score, replicate 2 = 1.32; robust z-score, replicate 3 = 0.583.
Against PODXL2 (GeneID 50512) the deposit lists robust z-score, replicate 1 = -0.955; robust z-score, replicate 2 = -0.33; robust z-score, replicate 3 = -1.34.
Against POLR1A (GeneID 25885), the entry reads robust z-score, replicate 1 = 0.367; robust z-score, replicate 2 = 0.497; robust z-score, replicate 3 = -0.108.
For SERINC1 (GeneID 57515), the values are robust z-score, replicate 1 = -0.341; robust z-score, replicate 2 = -0.508; robust z-score, replicate 3 = -0.538.
With knock-down of NR2C2AP (GeneID 126382) the results were robust z-score, replicate 1 = 0.761; robust z-score, replicate 2 = 1.64; robust z-score, replicate 3 = 1.2.
Depletion of IFNG (GeneID 3458) gave: robust z-score, replicate 1 = -0.24; robust z-score, replicate 2 = -0.572; robust z-score, replicate 3 = -0.00726.
Against LEFTY1 (GeneID 10637), the entry reads robust z-score, replicate 1 = 1.36; robust z-score, replicate 2 = 0.663; robust z-score, replicate 3 = 1.59.
With knock-down of POLR1B (GeneID 84172), the screen gave robust z-score, replicate 1 = 0.762; robust z-score, replicate 2 = 0.737; robust z-score, replicate 3 = 0.474.
Against ZC4H2 (GeneID 55906), the entry reads robust z-score, replicate 1 = 1.22; robust z-score, replicate 2 = -0.0279; robust z-score, replicate 3 = 0.745.
Depletion of DHX57 (GeneID 90957) came out at: robust z-score, replicate 1 = 0.0858; robust z-score, replicate 2 = 0.877; robust z-score, replicate 3 = 0.587.
With knock-down of CENPBD1P (GeneID 92806), the record shows robust z-score, replicate 1 = 0.785; robust z-score, replicate 2 = 2.14; robust z-score, replicate 3 = 2.
Silencing of ATXN2 (GeneID 6311) resulted in: robust z-score, replicate 1 = -0.816; robust z-score, replicate 2 = 0.122; robust z-score, replicate 3 = 0.334.
For UHRF2 (GeneID 115426), the entry reads robust z-score, replicate 1 = 0.669; robust z-score, replicate 2 = 0.9; robust z-score, replicate 3 = 0.181.
LOC440542 (retired record) (GeneID 440542) gave robust z-score, replicate 1 = -0.912; robust z-score, replicate 2 = -0.983; robust z-score, replicate 3 = -0.417.
LOC401855 (retired record) (GeneID 401855) gave robust z-score, replicate 1 = -1.05; robust z-score, replicate 2 = -1.09; robust z-score, replicate 3 = -1.38.
Against HOXD13 (GeneID 3239) the deposit lists robust z-score, replicate 1 = -0.58; robust z-score, replicate 2 = -0.0528; robust z-score, replicate 3 = -0.304.
Depletion of IL22 (GeneID 50616) came out at: robust z-score, replicate 1 = 0.449; robust z-score, replicate 2 = -1.5; robust z-score, replicate 3 = 0.736.

Taken from above.
POLR1A (GeneID 25885), robust z-score, replicate 1 → 0.367
POLR1B (GeneID 84172), robust z-score, replicate 1 = 0.762
LEFTY1 (GeneID 10637), robust z-score, replicate 1 → 1.36
For “robust z-score, replicate 1”, IL22 (GeneID 50616) reads 0.449
